According to the supplement of paper PMC10849652:
This is one part of the list.

The chains behind the UniProt entries cited, without tags or fusion partners. Where a name states a change or a piece, a line headed by the entry shows the natural chain unless it says otherwise.
UniProt Q9BVC5: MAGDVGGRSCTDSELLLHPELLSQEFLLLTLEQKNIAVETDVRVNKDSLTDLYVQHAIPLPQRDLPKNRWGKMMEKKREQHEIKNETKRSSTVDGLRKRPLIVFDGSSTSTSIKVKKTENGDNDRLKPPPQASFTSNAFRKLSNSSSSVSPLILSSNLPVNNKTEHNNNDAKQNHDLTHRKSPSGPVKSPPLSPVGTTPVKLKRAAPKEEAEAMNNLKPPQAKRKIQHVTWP
UniProt Q9Y426: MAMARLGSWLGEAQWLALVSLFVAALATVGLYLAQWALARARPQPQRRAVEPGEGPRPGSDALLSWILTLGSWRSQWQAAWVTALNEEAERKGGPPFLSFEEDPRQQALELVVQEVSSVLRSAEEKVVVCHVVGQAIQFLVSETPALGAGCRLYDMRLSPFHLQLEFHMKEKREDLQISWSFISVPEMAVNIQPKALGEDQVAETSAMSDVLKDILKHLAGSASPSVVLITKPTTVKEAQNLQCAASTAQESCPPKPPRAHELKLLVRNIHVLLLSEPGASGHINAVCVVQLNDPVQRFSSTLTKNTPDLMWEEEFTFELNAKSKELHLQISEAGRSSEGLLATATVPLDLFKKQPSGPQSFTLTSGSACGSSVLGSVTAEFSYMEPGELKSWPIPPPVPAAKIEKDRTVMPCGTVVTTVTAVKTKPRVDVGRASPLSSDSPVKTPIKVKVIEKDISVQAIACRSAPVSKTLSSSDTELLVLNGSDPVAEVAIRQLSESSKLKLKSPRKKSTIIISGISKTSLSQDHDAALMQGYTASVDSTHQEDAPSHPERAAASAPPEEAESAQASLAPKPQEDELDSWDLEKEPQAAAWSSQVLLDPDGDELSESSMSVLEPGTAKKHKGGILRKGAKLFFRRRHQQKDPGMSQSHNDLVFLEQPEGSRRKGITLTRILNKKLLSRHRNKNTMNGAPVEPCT
UniProt P07384: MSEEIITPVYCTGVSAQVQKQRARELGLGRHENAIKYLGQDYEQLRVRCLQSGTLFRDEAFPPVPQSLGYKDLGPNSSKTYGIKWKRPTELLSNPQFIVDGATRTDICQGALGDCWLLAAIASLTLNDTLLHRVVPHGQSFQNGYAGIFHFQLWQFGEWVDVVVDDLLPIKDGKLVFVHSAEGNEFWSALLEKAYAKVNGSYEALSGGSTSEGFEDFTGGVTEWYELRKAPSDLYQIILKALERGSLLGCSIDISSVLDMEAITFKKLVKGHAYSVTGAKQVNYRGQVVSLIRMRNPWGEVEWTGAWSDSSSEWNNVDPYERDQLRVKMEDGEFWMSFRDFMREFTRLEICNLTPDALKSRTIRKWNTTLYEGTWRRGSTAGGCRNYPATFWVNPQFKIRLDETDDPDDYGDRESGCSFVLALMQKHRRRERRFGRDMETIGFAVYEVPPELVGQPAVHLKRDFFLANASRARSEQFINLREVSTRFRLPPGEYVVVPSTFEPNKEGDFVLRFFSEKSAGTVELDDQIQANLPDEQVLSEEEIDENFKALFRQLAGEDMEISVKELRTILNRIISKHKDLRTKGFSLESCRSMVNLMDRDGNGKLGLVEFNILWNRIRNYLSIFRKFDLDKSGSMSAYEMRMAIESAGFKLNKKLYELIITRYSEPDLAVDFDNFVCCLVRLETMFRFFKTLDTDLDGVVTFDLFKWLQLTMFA
UniProt P41223: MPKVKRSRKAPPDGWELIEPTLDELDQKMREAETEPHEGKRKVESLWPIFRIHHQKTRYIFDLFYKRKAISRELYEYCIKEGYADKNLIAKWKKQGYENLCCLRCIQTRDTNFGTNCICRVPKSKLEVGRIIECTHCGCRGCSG
UniProt O95873: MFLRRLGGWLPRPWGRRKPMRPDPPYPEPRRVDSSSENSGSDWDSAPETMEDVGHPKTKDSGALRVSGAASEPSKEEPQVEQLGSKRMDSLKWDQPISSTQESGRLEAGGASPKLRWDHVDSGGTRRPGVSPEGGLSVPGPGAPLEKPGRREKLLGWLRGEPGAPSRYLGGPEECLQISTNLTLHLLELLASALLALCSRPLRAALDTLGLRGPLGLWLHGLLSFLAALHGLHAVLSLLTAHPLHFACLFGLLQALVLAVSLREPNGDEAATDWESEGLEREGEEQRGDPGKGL
UniProt Q8N5I9: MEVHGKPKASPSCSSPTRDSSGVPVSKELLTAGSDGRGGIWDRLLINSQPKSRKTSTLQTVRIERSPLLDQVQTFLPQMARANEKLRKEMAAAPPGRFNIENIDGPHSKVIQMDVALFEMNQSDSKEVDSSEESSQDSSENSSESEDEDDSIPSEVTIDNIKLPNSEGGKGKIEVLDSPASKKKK
UniProt P04632: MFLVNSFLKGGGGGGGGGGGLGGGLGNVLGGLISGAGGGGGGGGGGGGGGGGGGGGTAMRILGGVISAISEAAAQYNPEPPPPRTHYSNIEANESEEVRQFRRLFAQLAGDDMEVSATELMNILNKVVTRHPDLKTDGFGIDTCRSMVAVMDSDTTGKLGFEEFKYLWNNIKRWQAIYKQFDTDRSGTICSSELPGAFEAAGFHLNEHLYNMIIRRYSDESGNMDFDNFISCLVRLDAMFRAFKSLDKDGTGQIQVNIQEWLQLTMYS
UniProt Q86VP6: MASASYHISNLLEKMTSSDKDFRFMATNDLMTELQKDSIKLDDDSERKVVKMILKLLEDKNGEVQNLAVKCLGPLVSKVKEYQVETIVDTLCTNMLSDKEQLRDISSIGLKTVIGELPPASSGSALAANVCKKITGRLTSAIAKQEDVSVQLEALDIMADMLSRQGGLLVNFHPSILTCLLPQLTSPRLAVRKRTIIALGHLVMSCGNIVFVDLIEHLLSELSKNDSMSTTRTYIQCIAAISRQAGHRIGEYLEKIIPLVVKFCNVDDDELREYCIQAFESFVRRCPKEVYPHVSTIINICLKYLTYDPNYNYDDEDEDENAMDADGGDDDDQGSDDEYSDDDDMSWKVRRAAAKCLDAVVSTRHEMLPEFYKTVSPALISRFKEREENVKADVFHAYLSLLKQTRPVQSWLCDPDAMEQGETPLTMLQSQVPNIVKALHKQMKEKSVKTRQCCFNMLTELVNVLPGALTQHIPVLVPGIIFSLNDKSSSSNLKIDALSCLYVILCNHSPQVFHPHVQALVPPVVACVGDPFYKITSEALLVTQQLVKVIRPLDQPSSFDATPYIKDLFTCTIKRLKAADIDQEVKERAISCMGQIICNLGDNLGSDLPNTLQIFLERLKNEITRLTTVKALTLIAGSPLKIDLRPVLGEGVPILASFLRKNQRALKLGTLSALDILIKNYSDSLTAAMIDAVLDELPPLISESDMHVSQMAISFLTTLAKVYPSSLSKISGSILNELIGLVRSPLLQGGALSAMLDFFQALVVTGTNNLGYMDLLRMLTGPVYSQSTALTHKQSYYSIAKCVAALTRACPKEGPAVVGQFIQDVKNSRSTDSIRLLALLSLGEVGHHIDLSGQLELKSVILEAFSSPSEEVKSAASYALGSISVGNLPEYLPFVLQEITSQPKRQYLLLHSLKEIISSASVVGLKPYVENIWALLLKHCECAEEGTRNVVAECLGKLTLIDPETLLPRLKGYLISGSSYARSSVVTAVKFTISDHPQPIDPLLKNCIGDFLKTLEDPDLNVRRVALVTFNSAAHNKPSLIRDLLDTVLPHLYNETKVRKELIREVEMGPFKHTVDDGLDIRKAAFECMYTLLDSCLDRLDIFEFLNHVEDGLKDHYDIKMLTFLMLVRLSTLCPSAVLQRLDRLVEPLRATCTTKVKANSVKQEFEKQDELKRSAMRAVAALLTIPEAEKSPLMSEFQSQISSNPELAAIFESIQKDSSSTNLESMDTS
UniProt P27797, whole entry, looked up: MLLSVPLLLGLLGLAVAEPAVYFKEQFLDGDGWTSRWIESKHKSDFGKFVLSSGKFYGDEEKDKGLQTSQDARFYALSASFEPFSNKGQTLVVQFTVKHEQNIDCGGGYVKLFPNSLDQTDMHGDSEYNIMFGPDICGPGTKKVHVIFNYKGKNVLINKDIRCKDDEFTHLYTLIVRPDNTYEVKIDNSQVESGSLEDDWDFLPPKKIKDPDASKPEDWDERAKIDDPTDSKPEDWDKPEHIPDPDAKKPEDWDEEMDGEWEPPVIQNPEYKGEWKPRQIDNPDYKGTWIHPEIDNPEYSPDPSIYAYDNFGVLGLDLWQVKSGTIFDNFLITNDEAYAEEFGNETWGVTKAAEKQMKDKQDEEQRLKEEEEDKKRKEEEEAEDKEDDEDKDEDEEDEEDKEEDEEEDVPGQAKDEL
UniProt P47756, whole entry, looked up: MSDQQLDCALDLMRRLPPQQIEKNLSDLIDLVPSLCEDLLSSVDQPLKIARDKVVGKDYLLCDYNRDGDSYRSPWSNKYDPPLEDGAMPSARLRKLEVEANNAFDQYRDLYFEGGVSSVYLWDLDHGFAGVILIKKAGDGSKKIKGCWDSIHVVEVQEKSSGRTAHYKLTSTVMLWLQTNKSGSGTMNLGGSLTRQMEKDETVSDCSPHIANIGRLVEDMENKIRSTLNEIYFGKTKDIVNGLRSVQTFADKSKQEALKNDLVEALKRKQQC
UniProt O75155: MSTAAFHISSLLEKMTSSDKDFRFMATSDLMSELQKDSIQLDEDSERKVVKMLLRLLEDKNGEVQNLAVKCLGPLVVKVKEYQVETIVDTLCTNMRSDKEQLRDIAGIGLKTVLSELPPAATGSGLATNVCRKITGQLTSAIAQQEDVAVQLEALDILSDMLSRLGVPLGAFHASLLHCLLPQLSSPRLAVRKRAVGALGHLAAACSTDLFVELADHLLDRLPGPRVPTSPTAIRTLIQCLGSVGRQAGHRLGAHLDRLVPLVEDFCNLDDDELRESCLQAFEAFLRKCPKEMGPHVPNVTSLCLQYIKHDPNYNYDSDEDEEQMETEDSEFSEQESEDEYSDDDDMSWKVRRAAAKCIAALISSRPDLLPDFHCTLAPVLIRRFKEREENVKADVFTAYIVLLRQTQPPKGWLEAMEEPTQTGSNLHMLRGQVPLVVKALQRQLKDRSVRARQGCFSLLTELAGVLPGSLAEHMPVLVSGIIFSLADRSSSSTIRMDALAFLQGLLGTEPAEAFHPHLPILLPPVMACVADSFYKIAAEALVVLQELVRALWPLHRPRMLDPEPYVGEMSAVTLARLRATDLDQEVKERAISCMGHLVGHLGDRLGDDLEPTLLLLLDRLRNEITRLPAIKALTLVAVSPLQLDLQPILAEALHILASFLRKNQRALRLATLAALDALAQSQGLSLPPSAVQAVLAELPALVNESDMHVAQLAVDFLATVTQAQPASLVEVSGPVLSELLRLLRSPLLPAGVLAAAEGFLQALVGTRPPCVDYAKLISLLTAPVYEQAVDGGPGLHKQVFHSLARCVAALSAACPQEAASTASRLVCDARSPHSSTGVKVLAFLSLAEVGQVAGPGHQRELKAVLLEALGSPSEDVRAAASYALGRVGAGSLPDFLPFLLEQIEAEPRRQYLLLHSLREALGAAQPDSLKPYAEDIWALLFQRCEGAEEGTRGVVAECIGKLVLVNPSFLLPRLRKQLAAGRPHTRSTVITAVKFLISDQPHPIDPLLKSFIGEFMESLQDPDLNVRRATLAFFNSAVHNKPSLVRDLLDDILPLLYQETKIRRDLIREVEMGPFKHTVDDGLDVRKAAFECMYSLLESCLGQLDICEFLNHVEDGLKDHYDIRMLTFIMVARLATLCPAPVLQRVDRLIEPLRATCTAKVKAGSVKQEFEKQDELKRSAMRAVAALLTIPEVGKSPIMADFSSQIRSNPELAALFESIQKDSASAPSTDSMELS
UniProt Q9H0W9: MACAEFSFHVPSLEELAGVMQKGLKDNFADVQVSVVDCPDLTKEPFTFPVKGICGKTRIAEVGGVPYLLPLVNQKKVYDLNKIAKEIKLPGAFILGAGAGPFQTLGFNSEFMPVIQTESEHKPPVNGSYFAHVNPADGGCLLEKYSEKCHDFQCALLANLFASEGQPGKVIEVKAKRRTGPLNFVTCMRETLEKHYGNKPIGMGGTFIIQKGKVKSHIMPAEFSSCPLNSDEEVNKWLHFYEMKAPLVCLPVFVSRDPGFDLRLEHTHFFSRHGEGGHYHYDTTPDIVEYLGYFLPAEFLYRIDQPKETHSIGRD
UniProt Q9NX04: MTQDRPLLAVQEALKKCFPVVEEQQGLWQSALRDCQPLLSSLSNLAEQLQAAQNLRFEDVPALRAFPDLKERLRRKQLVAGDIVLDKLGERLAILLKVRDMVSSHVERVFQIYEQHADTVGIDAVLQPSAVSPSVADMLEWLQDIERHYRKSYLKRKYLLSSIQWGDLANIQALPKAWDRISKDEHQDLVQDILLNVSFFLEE

Assays:
Test in all cases: log2 fold change, soluble protein after heating vs DMSO (PISA); higher = thermal stabilisation; K562 cells, 10 uM, 30 min; active = over 0.2 and 3.5 SD of the protein, either way, in both replicates (recomputed)
[1] = compound: CS(=O)(=O)c1ccc(-c2cnc(N)c(C(=O)Nc3ccccc3)n2)cc1
Procedure, shortened: (§1)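 Soluble protein was quantified by TMTpro 16plex LC-MS/MS after channel sums were equalised. It was obtained as the supernatant after 21,000xg for 90 min from pooled aliquots of K562 cells (2×10^6 cells/mL, 10 μM compound, 30 min) heated for 3 min across 48°C-58°C and extracted in PBS with 0.5% NP-40 at 4°C. Thermal stability values are relative to control samples and come from duplicates. They are given as log2 fold changes.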

crizotinib = compound: C[C@@H](Oc1cc(-c2cnn(C3CCNCC3)c2)cnc1N)c1c(Cl)ccc(F)c1Cl [crizotinib]
Procedure, shortened: as §1

[2] = compound: C[C@@H]1COCCN1C2=NC(=NC(=C2)C3(CC3)S(=O)(=O)C)C4=C5C=CNC5=CC=C4
Procedure, shortened: as §1

[3] = compound: C[C@H](C1=CC=C(C=C1)C(=O)NC2=C3C=CNC3=NC=C2)N
Procedure, shortened: as §1

duvelisib = compound: C[C@H](Nc1ncnc2nc[nH]c12)c1cc2cccc(Cl)c2c(=O)n1-c1ccccc1 [duvelisib]
Procedure, shortened: as §1

gandotinib = compound: Cc1cc(Nc2cc(CN3CCOCC3)c3nc(C)c(Cc4ccc(Cl)cc4F)n3n2)n[nH]1 [gandotinib]
Procedure, shortened: as §1

tozasertib = compound: Cc1cc(Nc2cc(N3CCN(C)CC3)nc(Sc3ccc(NC(=O)C4CC4)cc3)n2)n[nH]1 [tozasertib]
Procedure, shortened: as §1

[4] = compound: Cc1cc(SCc2sc(-c3ccc(C(F)(F)F)cc3)nc2C)ccc1OCC(=O)O
Procedure, shortened: as §1

doramapimod = compound: Cc1ccc(-n2nc(C(C)(C)C)cc2NC(=O)Nc2ccc(OCCN3CCOCC3)c3ccccc23)cc1 [doramapimod]
Procedure, shortened: as §1

ispinesib = compound: Cc1ccc(C(=O)N(CCCN)[C@@H](c2nc3cc(Cl)ccc3c(=O)n2Cc2ccccc2)C(C)C)cc1 [ispinesib]
Procedure, shortened: as §1

bafetinib = compound: Cc1ccc(NC(=O)c2ccc(CN3CC[C@H](N(C)C)C3)c(C(F)(F)F)c2)cc1Nc1nccc(-c2cncnc2)n1 [bafetinib]
Procedure, shortened: as §1

[5] = compound: Cc1cccc(CC(=O)N2CCc3c2ccc(-c2cn(C)c4ncnc(N)c24)c3F)n1
Procedure, shortened: as §1

nilotinib = compound: Cc1cn(-c2cc(NC(=O)c3ccc(C)c(Nc4nccc(-c5cccnc5)n4)c3)cc(C(F)(F)F)c2)cn1 [nilotinib]
Procedure, shortened: as §1

[6] = compound: Cc1nc(Nc2n[nH]c3c2CN(C(=O)N[C@H](CN(C)C)c2ccccc2)C3(C)C)c2sccc2n1
Procedure, shortened: as §1

dasatinib = compound: Cc1nc(Nc2ncc(C(=O)Nc3c(C)cccc3Cl)s2)cc(N2CCN(CCO)CC2)n1 [dasatinib]
Procedure, shortened: as §1

[7] = compound: Cc1ncc(-c2ccnc(Nc3ccc(S(C)(=O)=O)cc3)n2)n1C(C)C
Procedure, shortened: as §1

[8] = compound: Cn1cc(-c2ccc3c(c2)CCN3C(=O)Cc2cccc(C(F)(F)F)c2)c2c(N)ncnc21
Procedure, shortened: as §1

[9] = compound: Cn1cc(-c2ccc3nnc(C(F)(F)c4ccc5ncccc5c4)n3n2)cn1
Procedure, shortened: as §1

tipifarnib = compound: Cn1cncc1[C@@](N)(c1ccc(Cl)cc1)c1ccc2c(c1)c(-c1cccc(Cl)c1)cc(=O)n2C [tipifarnib]
Procedure, shortened: as §1

mubritinib = compound: FC(F)(F)c1ccc(/C=C/c2nc(COc3ccc(CCCCn4ccnn4)cc3)co2)cc1 [mubritinib]
Procedure, shortened: as §1

Measured: log2 fold change

C2orf49 (UniProt Q9BVC5)
inactive: [1] -0.015 | crizotinib -0.041 | [2] -0.395 | [3] 0.293 | duvelisib -0.12 | gandotinib -0.054 | tozasertib 0.073 | [4] 0.15 | doramapimod 0.137 | ispinesib -0.023 | bafetinib 0.033 | [5] 0 | nilotinib 0.017 | [6] 0.059 | dasatinib 0.143 | [7] 0.114 | [8] 0.014 | [9] -0.063 | tipifarnib -0.024 | mubritinib -0.126

C2CD2 (UniProt Q9Y426)
inactive: [1] 0.119 | crizotinib -0.03 | [2] 0.128 | [3] 0.138 | duvelisib 0.008 | gandotinib -0.048 | tozasertib -0.005 | [4] -0.07 | doramapimod -0.01 | ispinesib -0.102 | bafetinib -0.039 | [5] 0.022 | nilotinib -0.309 | [6] -0.411 | dasatinib -0.018 | [7] -0.246 | [8] -0.071 | [9] -0.063 | tipifarnib -0.016 | mubritinib 0.007

CAPN1 (UniProt P07384)
inactive: [1] -0.009 | crizotinib 0.061 | [2] 0.009 | [3] -0.109 | duvelisib 0.045 | gandotinib 0.037 | tozasertib -0.023 | [4] -0.028 | doramapimod -0.023 | ispinesib 0.066 | bafetinib -0.006 | [5] 0.006 | nilotinib 0.038 | [6] 0.011 | dasatinib 0.072 | [7] -0.014 | [8] 0.024 | [9] 0.01 | tipifarnib 0.028 | mubritinib 0.049

BUD31 (UniProt P41223)
inactive: [1] -0.037 | crizotinib -0.016 | [2] 0.012 | [3] -0.097 | duvelisib 0.02 | gandotinib 0.027 | tozasertib 0.027 | [4] 0.018 | doramapimod -0.046 | ispinesib -0.049 | bafetinib -0.102 | [5] 0.05 | nilotinib 0.013 | [6] 0.008 | dasatinib -0.026 | [7] 0.031 | [8] -0.002 | [9] -0.058 | tipifarnib -0.042 | mubritinib -0.02

C20orf27 isoform 2 (UniProt Q9GZN8)
inactive: [1] 0.066 | crizotinib -0.066 | [2] 0.236 | [3] -0.028 | duvelisib 0.125 | gandotinib -0.089 | tozasertib -0.067 | [4] 0.081 | doramapimod -0.008 | ispinesib 0.118 | bafetinib 0.033 | [5] 0.064 | nilotinib 0.02 | [6] 0.025 | dasatinib -0.136 | [7] -0.003 | [8] 0.069 | [9] -0.028 | tipifarnib -0.121 | mubritinib 0.008

C6orf47 (UniProt O95873)
inactive: [1] -0.023 | crizotinib -0.002 | [2] 0.036 | [3] 0.01 | duvelisib -0.027 | gandotinib 0.121 | tozasertib -0.012 | [4] -0.107 | doramapimod -0.019 | ispinesib -0.129 | bafetinib -0.078 | [5] -0.093 | nilotinib -0.029 | [6] -0.021 | dasatinib -0.036 | [7] 0.002 | [8] 0.036 | [9] 0.037 | tipifarnib 0.083 | mubritinib 0.029

C12orf45 (UniProt Q8N5I9)
inactive: [1] 0 | crizotinib 0.051 | [2] 0.05 | [3] -0.075 | duvelisib -0.023 | gandotinib 0.037 | tozasertib 0.003 | [4] -0.075 | doramapimod 0.011 | ispinesib 0.043 | bafetinib 0.011 | [5] -0.027 | nilotinib 0.013 | [6] 0.009 | dasatinib 0.003 | [7] -0.036 | [8] 0.033 | [9] 0.056 | tipifarnib 0.023 | mubritinib -0.001

CAPNS1 (UniProt P04632)
inactive: [1] 0.013 | crizotinib 0.043 | [2] 0.056 | [3] -0.056 | duvelisib 0.04 | gandotinib 0.018 | tozasertib -0.011 | [4] -0.008 | doramapimod -0.022 | ispinesib 0.024 | bafetinib -0.052 | [5] -0.052 | nilotinib 0.03 | [6] 0.013 | dasatinib 0.026 | [7] -0.022 | [8] 0.041 | [9] 0.027 | tipifarnib 0.032 | mubritinib 0.002

CAND1 (UniProt Q86VP6)
inactive: [1] 0.009 | crizotinib 0.026 | [2] 0.038 | [3] -0.069 | duvelisib 0.013 | gandotinib -0.02 | tozasertib -0.009 | [4] -0.031 | doramapimod -0.069 | ispinesib 0.056 | bafetinib -0.034 | [5] 0.014 | nilotinib -0.005 | [6] 0.003 | dasatinib 0.043 | [7] -0.004 | [8] 0.017 | [9] 0.015 | tipifarnib -0.058 | mubritinib 0.02

CALR (UniProt P27797)
inactive: [1] -0.002 | crizotinib 0.078 | [2] -0.092 | [3] 0.056 | duvelisib -0.043 | gandotinib -0.01 | tozasertib 0.02 | [4] 0.019 | doramapimod 0.007 | ispinesib 0.014 | bafetinib -0.078 | [5] -0.028 | nilotinib 0.008 | [6] -0.014 | dasatinib 0.018 | [7] -0.035 | [8] -0.043 | [9] -0.004 | tipifarnib 0.076 | mubritinib -0.031

Copied from the entries so far (three entries):
CAPNS1 (UniProt P04632)
inactive: [1] 0.013 | crizotinib 0.043 | [2] 0.056 | [3] -0.056 | duvelisib 0.04 | gandotinib 0.018 | tozasertib -0.011 | [4] -0.008 | doramapimod -0.022 | ispinesib 0.024 | bafetinib -0.052 | [5] -0.052 | nilotinib 0.03 | [6] 0.013 | dasatinib 0.026 | [7] -0.022 | [8] 0.041 | [9] 0.027 | tipifarnib 0.032 | mubritinib 0.002

CAND1 (UniProt Q86VP6)
inactive: [1] 0.009 | crizotinib 0.026 | [2] 0.038 | [3] -0.069 | duvelisib 0.013 | gandotinib -0.02 | tozasertib -0.009 | [4] -0.031 | doramapimod -0.069 | ispinesib 0.056 | bafetinib -0.034 | [5] 0.014 | nilotinib -0.005 | [6] 0.003 | dasatinib 0.043 | [7] -0.004 | [8] 0.017 | [9] 0.015 | tipifarnib -0.058 | mubritinib 0.02

CALR (UniProt P27797)
inactive: [1] -0.002 | crizotinib 0.078 | [2] -0.092 | [3] 0.056 | duvelisib -0.043 | gandotinib -0.01 | tozasertib 0.02 | [4] 0.019 | doramapimod 0.007 | ispinesib 0.014 | bafetinib -0.078 | [5] -0.028 | nilotinib 0.008 | [6] -0.014 | dasatinib 0.018 | [7] -0.035 | [8] -0.043 | [9] -0.004 | tipifarnib 0.076 | mubritinib -0.031

The list goes on:

CAPZB isoform 2 (UniProt P47756)
inactive: [1] 0.029 | crizotinib -0.007 | [2] 0.038 | [3] -0.114 | duvelisib -0.025 | gandotinib -0.01 | tozasertib -0.017 | [4] -0.059 | doramapimod -0.057 | ispinesib 0.041 | bafetinib -0.079 | [5] 0.001 | nilotinib 0.059 | [6] -0.097 | dasatinib 0.088 | [7] 0.001 | [8] 0.007 | [9] 0.073 | tipifarnib 0.058 | mubritinib 0.108

CAND2 (UniProt O75155)
inactive: [1] 0.034 | crizotinib 0.031 | [2] 0.068 | [3] -0.028 | duvelisib 0.001 | gandotinib 0.008 | tozasertib -0.045 | [4] -0.03 | doramapimod 0.101 | ispinesib -0.01 | bafetinib -0.098 | [5] 0.007 | nilotinib -0.008 | [6] -0.003 | dasatinib 0.063 | [7] -0.018 | [8] -0.005 | [9] 0.077 | tipifarnib 0.109 | mubritinib 0.061

C11orf54 (UniProt Q9H0W9)
inactive: [1] 0.061 | crizotinib -0.015 | [2] -0.02 | [3] -0.105 | duvelisib 0.059 | gandotinib 0.039 | tozasertib -0.037 | [4] 0.01 | doramapimod -0.039 | ispinesib -0.014 | bafetinib -0.045 | [5] -0.025 | nilotinib 0.032 | [6] 0.022 | dasatinib 0.024 | [7] -0.019 | [8] -0.008 | [9] -0.003 | tipifarnib -0.026 | mubritinib 0.045

C1orf109 (UniProt Q9NX04)
inactive: [1] -0.173 | crizotinib 0.072 | [2] -0.188 | [3] -0.003 | duvelisib 0.073 | gandotinib -0.075 | tozasertib -0.009 | [4] 0.002 | doramapimod -0.038 | ispinesib -0.009 | bafetinib -0.061 | [5] 0.013 | nilotinib -0.001 | [6] -0.146 | dasatinib 0.036 | [7] 0.027 | [8] 0.037 | [9] 0.043 | tipifarnib 0.025 | mubritinib 0.049

BTF3 (UniProt P20290)
inactive: [1] -0.019 | crizotinib 0.03 | [2] -0.06 | [3] -0.046 | duvelisib -0.016 | gandotinib -0.011 | tozasertib -0.023 | [4] -0.014 | doramapimod -0.017 | ispinesib 0.03 | bafetinib -0.012 | [5] -0.058 | nilotinib -0.007 | [6] 0.014 | dasatinib 0.059 | [7] -0.042 | [8] 0.009 | [9] -0.02 | tipifarnib -0.009 | mubritinib -0.003

C2CD5 isoform 4 (UniProt Q86YS7)
inactive: [1] 0.025 | crizotinib -0.127 | [2] 0.052 | [3] -0.023 | duvelisib 0.016 | gandotinib 0.017 | tozasertib -0.012 | [4] 0.077 | doramapimod -0.02 | ispinesib -0.018 | bafetinib -0.06 | [5] -0.006 | nilotinib -0.032 | [6] 0.035 | dasatinib -0.144 | [7] -0.039 | [8] 0.075 | [9] 0.018 | tipifarnib 0.014 | mubritinib 0.07
